Experimental data reported in PubChem BioAssay AID445 (National Center for Advancing Translational Sciences (NCATS), 2006).
The list shows a part of the results. Further columns of the screen follow, without active or inactive calls. The list favours compounds with an active or inconclusive main result. Words in brackets tell the shape of the fitted curve; partial curves, single points and poor fits give uncertain potencies.

Assay: IkB Signaling
Settings: ABC-DLBCL IkBa-CBG/CBR dual luciferase ratio (green luciferase fused to IkBa over red control in OCI-Ly3 lymphoma cells), 4 h
Procedure, shortened: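 Luminescence ratio of IκBα-fused green versus native red beetle luciferase in OCI-Ly3 cells, 4 h post-doxycycline with compound; red signal alone, scaled from basal (0%) to zero light (-100%), flagged nonspecific or cytotoxic effects.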

[1] = measured here: control luc red channel unless noted
[2] = measured here: IkB-luc green channel
[3] = measured here: control luc red channel

CCN(Cc1ccccc1)C(=O)c1cc2c(=O)oc3ccc(C)cc3c2s1
AC50 [1]: 39.8 µM [falling, single point]

Cc1cc(C(=O)Cn2nnc(-c3ccc(Cl)cc3)n2)c(C)n1CC1CCCO1 (stereo not drawn)
AC50 [1]: 10 µM [falling, partial curve]

COc1ccccc1Cn1c(=O)c2ccccc2n2c(SCc3csc(C)n3)nnc12
AC50 [1]: 15.8 µM [falling, partial curve]

COc1ccc(NC(=O)c2oc3ccccc3c2NC(=O)C(C)(C)C)cc1
AC50 [1]: 7.94 µM [falling, partial curve]

Cc1cccc(NC(=O)CSc2nc(=O)n(Cc3ccco3)c3c2CCC3)c1C
AC50 [1]: 3.98 µM [falling, partial curve]

CN1CCC[C@@H]1CCO[C@](C)(c1ccccc1)c1ccc(Cl)cc1
AC50 [1]: 31.6 µM [falling, partial curve, poor fit]

O=c1c(N2CCN(c3cccc(Cl)c3)CC2)csc2ccccc12
AC50 [1]: 3.98 µM [falling, full curve]

Cc1cc(C)cc(NC(=O)C(=O)NCCCN2CCOCC2)c1
AC50 [1]: 12.6 µM [falling, partial curve]

CCN(CC)S(=O)(=O)c1ccc(Nc2nc3ccccc3n3nnnc23)cc1
AC50 [1]: 0.0398 µM [falling, full curve]

CCOc1ccccc1C(=O)Nc1cc(Cl)ccc1O
AC50 [1]: 3.98 µM [falling, full curve] [measured here: IkB-luc green channel]

CC1CCCCN1CCCNC(=O)c1ccc2c(c1)sc1nc(-c3ccc(F)cc3)cn12 (stereo not drawn)
AC50 [1]: 31.6 µM [falling, single point]

CCc1ccc(Oc2c(C(F)(F)F)oc3c(CN4CCN(CC)CC4)c(O)ccc3c2=O)cc1
AC50 [1]: 5.01 µM [falling, partial curve, poor fit]

COc1ccc(C(=O)NCC(c2ccc(N(C)C)cc2)N2CCCC2)cc1 (stereo not drawn)
AC50 [1]: 0.01 µM [falling, full curve, poor fit]

CC(=O)c1ccc(N2CCN(c3nc4c(S(=O)(=O)c5ccc(C)c(C)c5)nnn4c4ccc(Cl)cc34)CC2)cc1
AC50 [1]: 0.00631 µM [falling, full curve, poor fit]

Cc1cc(C)cc(-n2ccnc2SCC(=O)Nc2ccc(C)cc2C)c1
AC50 [1]: 39.8 µM [falling, partial curve]

O=C(CCCn1c(=O)c2ccccc2n(CC(=O)Nc2cccc(Cl)c2)c1=O)NCc1ccc2c(c1)OCO2
AC50 [1]: 15.8 µM [falling, partial curve]

CCC(C(=O)Nc1cc(OC)ccc1OC)n1c(=O)c(C(F)(F)F)nc2ccccc21 (stereo not drawn)
AC50 [1]: 20 µM [falling, partial curve]

Cc1c(NC(=O)c2cc(-n3cnnc3)ccc2Cl)cccc1-c1nc2ccccc2o1
AC50 [1]: 0.794 µM [falling, full curve]

COCCn1c(C)cc(O)c(C(c2ccc(Cl)cc2)N2CCN(c3ccccc3)CC2)c1=O (stereo not drawn)
AC50 [1]: 15.8 µM [falling, partial curve]

CN1C(C(=O)c2ccccc2)=C(NC(=O)c2ccccc2Br)c2ccccc2S1(=O)=O
AC50 [1]: 15.8 µM [falling, partial curve]

OC[C@@H]1O[C@@H](n2cnc3c(NC4CCCCC4)ncnc32)[C@@H](O)[C@H]1O
AC50 [1]: 1.58 µM [rising, full curve] [measured here: IkB-luc green channel]

CCc1ccc(NC(=O)Cc2csc(COc3cccc(C)c3)n2)cc1
AC50 [1]: 7.94 µM [falling, partial curve]

Cc1nc2ccc(S(=O)(=O)NC(C(=O)N3CCN(c4ccc(Cl)cc4)CC3)C(C)C)cc2s1 (stereo not drawn)
AC50 [1]: 25.1 µM [falling, single point]

O=C(CSc1nnc(Cc2cccs2)n1Cc1ccco1)Nc1ccc(Br)cc1
AC50 [2]: 25.1 µM [falling, partial curve] | AC50 [3]: 15.8 µM [falling, partial curve]

CCn1c(=O)cc(SCC(=O)NCCc2cccc(C)c2)c2ccccc21
AC50 [1]: 25.1 µM [falling, single point]

COc1ccc(-c2cc(C(C)=O)c(C)n2CCC(=O)Nc2ccc(C)cc2Cl)cc1
AC50 [1]: 0.0794 µM [rising, full curve]

Cc1ccc(C)c(OCCn2cc(C(=O)c3cccs3)c3ccccc32)c1
AC50 [1]: 3.16 µM [falling, full curve]

Cc1cc(C)n(-c2ccc(C(=O)OCC(=O)c3c(N)n(C)c(=O)n(C)c3=O)cc2)n1
AC50 [1]: 20 µM [falling, single point]

Cc1cccc(C(=O)N2CCc3cc(CNC(=O)c4ccc(Br)o4)ccc32)c1
AC50 [1]: 7.94 µM [falling, partial curve]

COCc1cc(C)nc2sc(C(=O)Nc3ccc(OC(F)(F)F)cc3)c(N)c12
AC50 [1]: 0.794 µM [falling, full curve, poor fit]

Cc1c(C(=O)OCC2CCCCC2)[nH]c2c1C(=O)CC(c1ccc(F)cc1)C2 (stereo not drawn)
AC50 [1]: 1 µM [rising, partial curve]

COc1cc(CCC(=O)OCc2nnc(-c3ccccc3)o2)cc(OC)c1OC
AC50 [1]: 5.01 µM [falling, partial curve]

COc1ccccc1CNC(=O)CCc1c(C)nc2c(c(C)nn2-c2ccc(C)c(C)c2)c1C
AC50 [1]: 15.8 µM [falling, partial curve]

CC(C)(C)OC(=O)N1CCC(c2c(C(=O)NCc3ccccc3)cnn2-c2ccccc2)CC1
AC50 [1]: 31.6 µM [falling, partial curve]

Cc1cccc(Nc2c(-c3cccs3)nc3nc(C)cc(C)n23)c1
AC50 [1]: 39.8 µM [falling, single point]

CCc1ccc(CNC(=O)c2cc3c(=O)n(CC)c4ccccc4c3s2)cc1
AC50 [1]: 2.51 µM [falling, partial curve]

COc1ccc(OC)c(NC(=O)Cn2c(=O)n(CC3CCCO3)c(=O)c3cc(OC)c(OC)cc32)c1 (stereo not drawn)
AC50 [1]: 0.794 µM [rising, full curve]

CCc1ccc(NC(=O)CSc2nc3c(sc4ccccc43)c(=O)n2CCCOC)cc1
AC50 [1]: 3.98 µM [rising, partial curve]

Cc1ccc(CNC(=O)c2cnc(N3CCCCC3)c3ccccc23)cc1
AC50 [1]: 31.6 µM [falling, single point]

O=C(c1ccc2c(c1)CCN2S(=O)(=O)c1ccccc1)N1CCN(c2cccc(Cl)c2)CC1
AC50 [1]: 7.94 µM [falling, partial curve]

COc1ccc(CCNC(=O)c2cc3sc(Cl)cc3n2C)cc1OC
AC50 [1]: 39.8 µM [falling, single point]

COC(=O)c1cccc(Nc2c(-c3ccc(OC)cc3)nc3nc[nH]n23)c1
AC50 [2]: 39.8 µM [rising, single point] | AC50 [3]: 0.0501 µM [rising, partial curve, poor fit]

O=S1(=O)C=C(Sc2nc3ccccc3s2)c2ccccc21
AC50 [2]: 10 µM [falling, partial curve] | AC50 [3]: 0.794 µM [falling, partial curve]

CCOC(=O)c1ccc(NC(=O)C(CC)Sc2nnc3c4ccccc4n(C)c3n2)cc1 (stereo not drawn)
AC50 [1]: 6.31 µM [falling, partial curve, poor fit]

COc1ccc(S(=O)(=O)N2CCC(n3cnc4cc(C(F)(F)F)ccc43)CC2)cc1
AC50 [1]: 25.1 µM [falling, partial curve]

Cc1ccc(Cl)cc1-n1ncc2c(NC3CCCCC3)ncnc21
AC50 [1]: 3.98 µM [falling, partial curve]

CC(C)NC(=O)c1cc(-c2ccc(Br)cc2)on1
AC50 [1]: 10 µM [falling, partial curve]

CCOC(=O)C1CCCN(S(=O)(=O)c2ccc3c(c2)CCN3C(=O)CC)C1 (stereo not drawn)
AC50 [1]: 15.8 µM [falling, partial curve]

O=C(CSc1nncn2c1cc1occc12)Nc1ccccc1C(F)(F)F
AC50 [1]: 15.8 µM [falling, partial curve]

Cc1cccc2sc(N3CCN(C(=O)CS(=O)(=O)c4ccc(F)cc4)CC3)nc12
AC50 [1]: 39.8 µM [falling, partial curve]

CCOC(=O)c1c(C)[nH]c(CCC(=O)Nc2c(Cl)cc(OC)cc2OC)c1C
AC50 [1]: 5.01 µM [falling, partial curve]

Cc1c(Cl)ccc2c1NC(=O)[C@]21[C@@H]2C(=O)N(Cc3ccccc3)C(=O)[C@@H]2[C@@H]2CCCN21
AC50 [1]: 12.6 µM [falling, partial curve]

CCc1ccc(S(=O)(=O)c2cnc3ccc(OC)cc3c2N2CCCC(C)C2)cc1 (stereo not drawn)
AC50 [1]: 25.1 µM [falling, single point]

Cc1cc(C(=O)N2CCN(c3ccc(F)cc3)CC2)c2c(C)nn(-c3cccc(Cl)c3C)c2n1
AC50 [1]: 15.8 µM [falling, partial curve]

COc1ccccc1-c1cc(N)n(S(=O)(=O)c2ccc(F)c(C)c2)n1
AC50 [1]: 2.51 µM [falling, full curve]

CC(C)(C)OC(=O)N[C@@H](Cc1ccccc1)c1nnc(S(=O)(=O)Cc2ccccc2)o1
AC50 [1]: 5.01 µM [falling, partial curve]

O=C(c1cc(-c2ccncc2)nc2ccc(Cl)cc12)N1CCN(C(=O)C2CCCO2)CC1 (stereo not drawn)
AC50 [1]: 7.94 µM [falling, partial curve]

COc1ccc(N(CC(=O)Nc2cccc(SC)c2)S(C)(=O)=O)cc1Cl
AC50 [1]: 12.6 µM [falling, partial curve]

Cc1ccc(NC(=O)c2ccc3oc(=O)c(S(=O)(=O)c4ccccc4)cc3c2)cc1C
AC50 [2]: 6.31 µM [rising, full curve] | AC50 [3]: 15.8 µM [falling, partial curve]
